# Measured values reported in paper PMC6814613.
# Amino acid sequences for entries named in this document (tags omitted). Residues count along the entry.
# UniProt P16234, residues 24-1089: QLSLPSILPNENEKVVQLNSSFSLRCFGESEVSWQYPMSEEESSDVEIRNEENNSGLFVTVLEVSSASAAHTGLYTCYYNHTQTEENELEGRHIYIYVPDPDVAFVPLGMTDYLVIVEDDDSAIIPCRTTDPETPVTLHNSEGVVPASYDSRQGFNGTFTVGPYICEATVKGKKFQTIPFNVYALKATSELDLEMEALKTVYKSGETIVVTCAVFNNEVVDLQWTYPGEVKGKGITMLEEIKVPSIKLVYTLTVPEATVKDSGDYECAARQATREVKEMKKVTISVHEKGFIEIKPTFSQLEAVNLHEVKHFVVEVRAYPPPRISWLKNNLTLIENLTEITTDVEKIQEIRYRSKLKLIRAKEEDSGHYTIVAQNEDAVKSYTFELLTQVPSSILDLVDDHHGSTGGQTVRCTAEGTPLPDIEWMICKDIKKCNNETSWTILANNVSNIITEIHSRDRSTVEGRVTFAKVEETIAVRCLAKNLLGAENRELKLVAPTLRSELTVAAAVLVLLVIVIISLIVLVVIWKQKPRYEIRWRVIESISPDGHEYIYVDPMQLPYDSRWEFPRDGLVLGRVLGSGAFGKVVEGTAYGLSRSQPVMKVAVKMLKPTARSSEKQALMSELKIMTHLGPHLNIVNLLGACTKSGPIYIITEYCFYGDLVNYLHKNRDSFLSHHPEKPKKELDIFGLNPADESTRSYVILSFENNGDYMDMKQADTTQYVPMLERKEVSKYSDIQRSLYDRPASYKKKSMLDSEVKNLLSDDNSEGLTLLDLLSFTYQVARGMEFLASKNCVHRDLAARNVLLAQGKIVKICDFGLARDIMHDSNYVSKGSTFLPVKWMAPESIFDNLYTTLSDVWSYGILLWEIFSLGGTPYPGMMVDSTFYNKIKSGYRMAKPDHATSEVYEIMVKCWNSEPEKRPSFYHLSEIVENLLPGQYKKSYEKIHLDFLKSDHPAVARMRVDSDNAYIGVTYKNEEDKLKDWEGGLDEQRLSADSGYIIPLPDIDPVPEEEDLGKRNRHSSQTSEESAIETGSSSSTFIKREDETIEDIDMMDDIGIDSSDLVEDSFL
# These are yes or no findings as the source states them, for the method shown. In cells and extracts the contact can be indirect. Some results given as binding are weak or reduced against the parent protein; the word gives no strength.
# Key:
# [1] = target: T1, Ninjurin 2 (human (endogenous in HT-29, primary human colon cancer cells and human colon cancer tissue)) (UniProt Q9NZG7); test: co-IP; endogenous NINJ2 precipitated with anti-NINJ2 antibody plus protein IgA/G beads from 1000 μg lysate of HT-29 cells or primary human colon cancer cells (pri-Can-1); bound RTKs detected by Western blotting
# T1 sequence: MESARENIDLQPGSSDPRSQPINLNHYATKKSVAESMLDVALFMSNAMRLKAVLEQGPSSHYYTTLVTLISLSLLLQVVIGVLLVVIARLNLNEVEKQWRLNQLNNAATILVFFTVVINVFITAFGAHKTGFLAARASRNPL
# [2] = target: T1, Ninjurin 2 (human (endogenous in HT-29, primary human colon cancer cells and human colon cancer tissue)); test: co-IP; endogenous NINJ2 precipitated with anti-NINJ2 antibody plus protein IgA/G beads from fresh human colon cancer tissue lysates (patients 1-3); bound RTKs detected by Western blotting
Substance,binding [1],binding [2]
epidermal growth factor receptor (from UniProt P00533 25-1210),binds,binds
platelet-derived growth factor receptor α (from UniProt P16234 24-1089),binds,binds
PDGFRβ (from UniProt P09619 33-1106) (receptor),binds,binds
